The series relates to P. dumerilii embryos. Briefly: Developmental toxicity assay with P. dumerilii embryos, dilution factor of in-use concentration (EC50,DF), also after degradation in darkness. Type of series: in vivo, Platynereis dumerilii. The conditions noted are these: 2,6-DCQ. The source says:
The DBP doses for 3-log E. coli reduction (pH 7.2) were set as the in-use concentrations, which were serially diluted and added to the P. dumerilii embryos at 12-h postfertilization. A dilution factor was defined as the ratio of the in-use concentration to the exposure concentration. Each exposure set contained a control sample (i.e., the embryos at 12-h postfertilization developed in seawater without the addition of DBPs). By 24-h postfertilization, normally developed embryos should have reached the first larval stage. An inverted stereomicroscope (×40 magnification) was used to observe the larvae. The normal development percentage was calculated as the ratio of normally developed embryos to total embryos. By plotting the curve of the normal development percentage versus the dilution factor, the EC50,DF value (i.e., the dilution factor corresponding to 50% of the normal development percentage of the control sample) was obtained using SigmaPlot 12. The developmental toxicity test was conducted in duplicate.

Values joined by “and” are separate entries in the source; they are usually repeats but may differ in a detail not shown here. Equal values may be shown once. The source gives many values for each of these; only a part stands here.

In the case of `O=C1C=C(Cl)C(=O)C(Cl)=C1` [2,6-DCQ, 2,6-dichlorobenzoquinone], the Normal development (degradation 1 h, dilution factor 21.3333) was 85% and 82.8358%; the Normal development (degradation 1 h, dilution factor 32) is 86.087% and 85%; the Normal development (degradation 2 h, dilution factor 21.3333) is 84.4901% and 85.7801%; the Normal development (degradation 4 h, dilution factor 6.4) is 84.9579% and 81.2687%; the Normal development (degradation 6 h, dilution factor 2.1333) is 82.0063% and 83.8851%; the Normal development (degradation 24 h, dilution factor 1.28) was 76.9034% and 75.824%. In addition, the Normal development runs as follows: (degradation 48 h, dilution factor 0.512) 85.2896% and 79.5958%; (degradation 48 h, dilution factor 0.64) 86.9401% and 87.7077%.

(Values after paper PMC11161644, “An effective and rapidly degradable disinfectant from disinfection byproducts” (Nature Communications, 2024).)
